Some of the results follow. The main result of the screen is listed elsewhere. These columns were measured beside it and carry no call. The list favours compounds with an active or inconclusive main result. The note in brackets gives the kind of curve behind each potency; many fits are weak.

The test is described as follows: qHTS Assay for Lipid Storage Modulators in Drosophila S3 Cells.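 For cell number change: cells counted by Cell Tracker Red CMTPX staining in the red channel.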 To be noted: BODIPY lipid droplet fluorescence, 18-24 h; for cell number change: measured here: cell count max response, cells fed with added oleic acid. Summed up: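 Drosophila S3 cells loaded with oleic acid (400 uM, as added) and compounds at several concentrations; lipid droplets imaged by 488-nm laser-scanning cytometry, 500–530 nm intensity and object ratio to cell channel. Percent activity normalized to 20 uM Triacsin C.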
For orientation: In qHTS, concentration-response curves come from the screen itself.

Setting [1] is: measured here: cell number channel AC50, cells fed with added oleic acid.
Setting [2] is: measured here: lipid fluorescence (Fed channel) AC50, cells fed with added oleic acid.

Broadly, the AC50 is the concentration at which the activity in the assay is half-maximal. As to `O=C(NCc1ccccc1)C1CC2CCCC(C1)C2=O` (stereo unspecified), the cell number change is -16.3%. The concentration at half-maximal activity (AC50) under setting [1] was 0.58 µM [falling, full curve]. For the same molecule, the AC50 under setting [2] is 29.1 µM [falling, single point]. For the molecule `Cc1cc(C)n2nc(SCC(=O)Nc3ccccc3C)nc2n1`, the cell number change was found to be 7.69%.

Consider `OCCCc1nc2n(n1)C(c1ccccc1Cl)C=C(c1cccs1)N2` (stereo unspecified), for which the AC50 was 0.58 µM [rising, full curve] under setting [1] and 0.366 µM [rising, full curve] under setting [2].

Regarding `Cc1c(S(=O)(=O)N2CCN(c3cccc(Cl)c3)CC2)c(=O)n(C)c(=O)n1C`, the cell number change stood at 21.4%. Also, under setting [2], the AC50 is 5.17 µM [rising, full curve, poor fit].

Consider `Cn1ccnc1C(=O)c1cc(=O)c2ccccc2o1`, for which the cell number change is 16.9%.

For the molecule `CC(C)c1ccc(NC(=O)NC2CCN(CC(=O)Nc3cccc4ccccc34)CC2)cc1`, the cell number change worked out at 22.9%. Further, the half-maximal activity concentration (AC50) under setting [1] was 6.51 µM [falling, single point]. Moreover, under setting [2], the concentration at half-maximal activity (AC50) is 7.31 µM [falling, partial curve]. For the molecule `O=C(O)/C=C/C(=O)Nc1ccc(OC(F)(F)Cl)cc1`, the cell number change was found to be 70.1%. In addition, the AC50 under setting [1] is 16.4 µM [rising, single point]. Consider `CNNC(=S)Nc1cccc(C(F)(F)F)c1`, for which the concentration at half-maximal activity (AC50) under setting [2] was 10.3 µM [rising, partial curve]. For `COc1cccc(CN2CCN(Cc3cccc(Oc4ccccc4)c3)CC2)c1OC`, the half-maximal activity concentration (AC50) under setting [2] is 0.13 µM [rising, full curve, poor fit]. As to `Clc1ccc(C2=NCCN2)cc1`, the cell number change was 10.8%. As to `CC(=O)Nc1cc2c(cc1NC(=O)Cn1nc(-c3ccc(F)cc3)ccc1=O)OCCO2`, the cell number change was 13%. The concentration at half-maximal activity (AC50) under setting [2] is 0.651 µM [rising, partial curve, poor fit]. For `CC(C)C(NC(=O)c1ccccc1NC(=O)c1ccccc1)C(=O)NCCCn1ccnc1` (stereo unspecified), the cell number change came to 36.6%. Further, the AC50 under setting [1] was 9.2 µM [rising, partial curve]. Under setting [2], the AC50 was 5.8 µM [rising, full curve]. As to `CCOC(=O)c1cnc2c(-c3ccccc3OC)c(C)nn2c1C`, the cell number change amounted to 7.76%. In addition, under setting [2], the AC50 is 0.00461 µM [rising, full curve, poor fit].

Regarding `CC(C)CC(COCc1cccc(Cl)c1)N1CCN(C(=O)c2ccc(C(F)(F)F)cc2)CCC1=O` (stereo unspecified), the cell number change was -46.7%. Further, the AC50 under setting [1] is 9.2 µM [falling, partial curve]. Under setting [2], the concentration at half-maximal activity (AC50) was 14.6 µM [falling, partial curve, poor fit]. As for `COCCN(C(=O)COc1ccccc1C#N)c1c(N)n(Cc2ccccc2)c(=O)[nH]c1=O`, the cell number change came out at 9.28%. As for `CC(NC(=O)C1CCN(S(=O)(=O)c2cccc3nonc23)CC1)c1ccccc1` (stereo unspecified), the cell number change was 36.5%. In addition, the AC50 under setting [1] was 20.6 µM [rising, partial curve, poor fit]. Further, the AC50 under setting [2] is 29.1 µM [falling, single point].

These data come from PubChem BioAssay AID2685 (National Center for Advancing Translational Sciences (NCATS), 2010).
